Results: patent publication US20090297479A1
Results are given in words; binding and its absence hold for the method and conditions named. Some binding calls cover weakened binding; strength is not graded here. Sequences can lack the tags named with a protein.

Assays:
[1] = target: T1, DC-HIL, mouse, endogenous on APC / dendritic cells (mouse) (UniProt Q99P91); assay: binding to dendritic cells (data not shown)
T1 sequence (looked up): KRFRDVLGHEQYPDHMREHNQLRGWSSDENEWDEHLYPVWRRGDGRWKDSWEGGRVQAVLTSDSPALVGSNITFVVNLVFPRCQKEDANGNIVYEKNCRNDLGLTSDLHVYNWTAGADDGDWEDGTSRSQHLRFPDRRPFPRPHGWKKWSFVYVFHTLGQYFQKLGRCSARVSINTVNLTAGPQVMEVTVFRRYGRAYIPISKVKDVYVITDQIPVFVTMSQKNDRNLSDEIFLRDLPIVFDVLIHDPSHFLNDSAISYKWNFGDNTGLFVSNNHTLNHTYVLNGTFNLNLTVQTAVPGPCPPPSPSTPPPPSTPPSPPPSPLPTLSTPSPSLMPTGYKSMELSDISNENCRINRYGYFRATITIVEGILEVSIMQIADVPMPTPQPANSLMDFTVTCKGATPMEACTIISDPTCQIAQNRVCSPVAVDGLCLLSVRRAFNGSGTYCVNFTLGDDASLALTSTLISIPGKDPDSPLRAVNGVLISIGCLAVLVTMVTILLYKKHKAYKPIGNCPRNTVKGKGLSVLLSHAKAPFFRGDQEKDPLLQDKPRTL

[2] = target: T2, DC-HIL-Fc (extracellular domain of mouse DC-HIL fused to the Fc portion of human IgG1) (mouse; human) (UniProt Q99P91); assay: competition: DC-HIL-Fc pretreated with SD4-Fc at varying concentrations, then FACS on activated CD4+ T-cells
T2 sequence (looked up): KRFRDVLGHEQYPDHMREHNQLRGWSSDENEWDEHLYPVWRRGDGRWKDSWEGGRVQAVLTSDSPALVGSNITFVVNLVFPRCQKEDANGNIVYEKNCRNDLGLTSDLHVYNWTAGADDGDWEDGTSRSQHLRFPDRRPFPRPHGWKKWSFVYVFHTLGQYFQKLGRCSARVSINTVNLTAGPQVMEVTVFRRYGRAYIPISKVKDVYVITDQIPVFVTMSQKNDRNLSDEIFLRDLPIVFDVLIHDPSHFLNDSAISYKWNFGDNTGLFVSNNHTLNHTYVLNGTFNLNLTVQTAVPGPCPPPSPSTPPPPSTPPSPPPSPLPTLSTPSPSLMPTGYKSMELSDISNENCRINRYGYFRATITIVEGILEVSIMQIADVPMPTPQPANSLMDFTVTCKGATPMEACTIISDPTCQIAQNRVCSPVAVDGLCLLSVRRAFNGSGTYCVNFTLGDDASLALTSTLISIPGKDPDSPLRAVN

binding [1]: binds | binding [2]: binds
B1: SD4-Fc (extracellular domain of SD-4 fused to the Fc portion of human IgG1) (Fc fusion, UniProt O35988 24-145, looked up, not shown: a dimerising Fc or GST)
chain: ESIRETEVIDPQDLLEGRYFSGALPDDEDAGGSDDFELSGSGDLDDTEEPRPFPEVIEPLVPLDNHIPENAQPGIRVPSEPKELEENEVIPKRAPSDVGDDMSNKVSMSSTAQGSNIFERTE
